Consider two molecules from US20230002494A1 (SANYOU BIOPHARMACEUTICALS, published 2023).

Where a chain is given by its changes, count along the chain named. No constants are given. Whether binding was seen depends on the method and setting. Where a sequence is shown, tags or fusion partners need not be part of it.

The target in this assay is B7-H3 (cell-expressed, Table 10). Put plainly: FACS, over-expressing cells.

B1: NB22D-21-huVH2 (Fc fusion, not shown: a dimerising Fc or GST)
chain: EVQLVESGGGLVQPGGSLRLSCAASRTDSNINGMHWYRQAPGKGREWVGTIFIDGNTIVTDSVKGRFTISRDNAKNTLYLQMNTLRAEDTAVYYCAADVSGYGRAWGQGTTVTVSS
notes: Humanized form of NB22D-21; also called humanized antibody NB22D-21-huVH2; D21-Vh2
Regarding B1, the binding entry is on record as “no binding”.

B2: NB22D-21-4 VHH-Fc chimeric antibody protein (Fc fusion)
chain: B1 chain with S29R, G33T, G55L
notes: not shown: human IgG1 Fc fragment, its N-terminus linked to the C-terminus of the VHH
Consider B2, for which the binding result was “no binding”.
